{"source": "PubChem BioAssay AID758", "about": "(NMMLSC, 2007)", "note": "The whole screen tested about 190,000 compounds, of which about 110 (0.058%) were called active. Inconclusive means that the source gave no clear call. Such entries were picked first, then a sample of the others.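 The calls were made as follows: active = fluorescent GTP binding to Rab7 beads changed by at least 20 points from the 100% baseline, either direction, mostly lower; inconclusive = compound itself probably fluorescent, or too few beads counted; inactive = the rest.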", "data": [{"test_system": "Rab7 GTPase wild type (dog), Bodipy-FL-GTP binding", "experiment": "modulators of GTP binding to Rab7, primary screen, biochemical, wildtype, multiplex bead flow cytometry (AID 758);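 also: median green fluorescence of bound Bodipy-FL-GTP per Rab7 bead population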", "conditions": "GST-Rab7 beads, fluorescent GTP binding, at 10 µM, actives lie on both sides, untreated = 100%, excess cold GTP = 0%", "values": [{"smiles": "O=[N+]([O-])c1cc(S(=O)(=O)N2CCCC2)ccc1N/N=C1/CCCc2ccccc21", "GTP binding activity (percent of control)": "inconclusive: 106%"}, {"smiles": "COc1cc(C(=O)Nc2ccc3c(c2)OCCO3)ccc1-n1cnnn1", "GTP binding activity (percent of control)": "inconclusive: 98%"}, {"smiles": "CCOC(=O)N1CCN(c2c(-c3ccc(C(C)C)cc3)c(=O)c2=O)CC1", "GTP binding activity (percent of control)": "inconclusive: 103%"}, {"smiles": "COc1cc(/C=N/NC(=O)c2cc(-c3c(C)nn(-c4ccccc4)c3C)n[nH]2)ccc1O", "GTP binding activity (percent of control)": "inconclusive: 94%"}, {"smiles": "Cc1cc(C)c2sc(N(CCN(C)C)C(=O)c3cc(Cl)sc3Cl)nc2c1", "GTP binding activity (percent of control)": "inconclusive: 127%"}, {"smiles": "Cc1ccc(C(=O)/C=C/c2ccc(-c3ccccc3[N+](=O)[O-])o2)cc1", "GTP binding activity (percent of control)": "inconclusive: 92%"}, {"smiles": "CSc1ccc(CN2C(=O)NC3(CCCCC3)C2=O)cc1", "GTP binding activity (percent of control)": "inactive: 98%"}, {"smiles": "COC(=O)CP(=O)(c1ccccc1)c1ccccc1", "GTP binding activity (percent of control)": "inactive: 93%"}, {"smiles": "O=C(NC(NCc1cccnc1)C(Cl)(Cl)Cl)c1cccc2ccccc12", "note": "(stereo unspecified)", "GTP binding activity (percent of control)": "inactive: 97%"}, {"smiles": "Cc1ccc(-c2nn(-c3ccccc3)cc2C(=O)OCC(=O)Nc2ncc(Cl)cc2Cl)cc1", "GTP binding activity (percent of control)": "inactive: 100%"}, {"smiles": "C=CCn1c(N)c(C(=O)Nc2ccc(C)c(C)c2)c2nc3ccccc3nc21", "GTP binding activity (percent of control)": "inconclusive: 88%"}, {"smiles": "Fc1cccc(NC(=S)NCCCN2CCOCC2)c1", "GTP binding activity (percent of control)": "inconclusive: 102%"}, {"smiles": "O=S(=O)(c1cccs1)N1CCC(CO)(Cc2ccc(Cl)cc2)CC1", "GTP binding activity (percent of control)": "inactive: 102%"}, {"smiles": "CCN(CC)CCn1c(NCc2ccc3c(c2)OCO3)nc2ccccc21", "GTP binding activity (percent of control)": "inactive: 107%"}, {"smiles": "Cc1nc(N)nc(Nc2ccc(Cl)cc2)c1Br", "GTP binding activity (percent of control)": "inconclusive: 101%"}, {"smiles": "CN(C)c1ccc(N/C(N)=N/c2nc(C(F)(F)F)cc(C(F)(F)F)n2)cc1", "GTP binding activity (percent of control)": "inactive: 95%"}, {"smiles": "O=C1OC(Cc2ccccn2)C(O)=C1C1=NCCCN1", "note": "(stereo unspecified)", "GTP binding activity (percent of control)": "inconclusive: 100%"}, {"smiles": "Nc1nc(CSC(=S)N2CCCCC2)nc(Nc2ccccc2)n1", "GTP binding activity (percent of control)": "inconclusive: 90%"}, {"smiles": "CCCNC(=O)COc1ncnc2sc(C)c(C)c12", "GTP binding activity (percent of control)": "inconclusive: 101%"}, {"smiles": "Cn1c(N/N=C/c2ccccc2)nc2sc3c(c2c1=O)CCC3", "GTP binding activity (percent of control)": "inconclusive: 89%"}, {"smiles": "COc1cc(NC(=O)c2ccc(COc3ccccc3Br)o2)cc(OC)c1OC", "GTP binding activity (percent of control)": "inconclusive: 98%"}, {"smiles": "CCCn1nc2cc(C(=O)N(CC)c3ccc(OC)cc3)ccc2c1OCC", "GTP binding activity (percent of control)": "inconclusive: 96%"}, {"smiles": "COc1cccc(/C=N/n2cnnc2)c1OCc1ccccc1", "GTP binding activity (percent of control)": "inconclusive: 102%"}, {"smiles": "COc1cc(CCNc2ccc3nnc(-c4ccccc4)n3n2)cc(OC)c1OC", "GTP binding activity (percent of control)": "inactive: 89%"}, {"smiles": "O=C(Nc1ccc2nc(-c3cccs3)c(-c3cccs3)nc2c1)N1CCOCC1", "GTP binding activity (percent of control)": "inconclusive: 96%"}, {"smiles": "Cc1ccc(NC(=O)Nc2cccc(Cl)c2)c(C(=O)O)c1", "GTP binding activity (percent of control)": "inconclusive: 89%"}, {"smiles": "CC1Cc2ccccc2N1C(=O)CN1C(=O)CN(C)C(=O)c2ccccc21", "note": "(stereo unspecified)", "GTP binding activity (percent of control)": "inconclusive: 103%"}, {"smiles": "O=C(CN1C(=O)c2ccccc2S1(=O)=O)N1CCN(c2ccc(F)cc2)CC1", "GTP binding activity (percent of control)": "inconclusive: 103%"}, {"smiles": "Cn1c(=O)c2cc(S(=O)(=O)Nc3cc(C(=O)O)cc(C(=O)O)c3)ccc2n(C)c1=O", "GTP binding activity (percent of control)": "inconclusive: 90%"}, {"smiles": "CCC(=O)Nc1ccc2c(c1)OCCO2", "GTP binding activity (percent of control)": "inconclusive: 102%"}, {"smiles": "O=C(NCc1cccnc1)C(=O)Nc1nc2ccccc2s1", "GTP binding activity (percent of control)": "inconclusive: 89%"}, {"smiles": "Cc1ccc2nc(-c3ccc(NC(=O)COC(=O)c4ccc([N+](=O)[O-])o4)cc3)sc2c1", "GTP binding activity (percent of control)": "inconclusive: 107%"}, {"smiles": "Cc1ccc(C(=O)Nc2ccccc2C(=O)O)cc1S(=O)(=O)NCc1ccccc1", "GTP binding activity (percent of control)": "inconclusive: 93%"}, {"smiles": "Cc1cnc(CNC(=O)c2ccc(OC3CCN(C(=O)C4CC4)CC3)cc2)cn1", "GTP binding activity (percent of control)": "inactive: 102%"}, {"smiles": "CCCC(Oc1ccc(Br)cc1)c1nc2c3cc(OC)c(OC)cc3nc(=S)n2[nH]1", "note": "(stereo unspecified)", "GTP binding activity (percent of control)": "inconclusive: 89%"}, {"smiles": "CCn1c(NC(=O)Nc2cccc(C)c2C)cc2sccc21", "GTP binding activity (percent of control)": "inconclusive: 103%"}, {"smiles": "O=C(COc1cccc(NC(=O)c2ccco2)c1)c1ccc(F)cc1", "GTP binding activity (percent of control)": "inconclusive: 104%"}, {"smiles": "Cn1c(=O)c2c(ncn2Cc2nnc(N)s2)n(C)c1=O", "GTP binding activity (percent of control)": "inactive: 102%"}, {"smiles": "CCCCNC(=S)NC(=O)c1ccccc1Br", "GTP binding activity (percent of control)": "inconclusive: 99%"}, {"smiles": "CN1CCN(c2ccc(S(=O)(=O)N3CCCCC3)cc2NC(=O)c2ccc(F)cc2F)CC1", "GTP binding activity (percent of control)": "inactive: 98%"}, {"smiles": "N#CC1=C(N)C(C#N)(C#N)C(c2cccnc2)C2CCCC=C12", "note": "(stereo unspecified)", "GTP binding activity (percent of control)": "inconclusive: 92%"}, {"smiles": "CCn1cnc2sc(-c3ccccc3)cc2c1=O", "GTP binding activity (percent of control)": "inconclusive: 103%"}, {"smiles": "O=C(CCc1ccc(S(=O)(=O)NCCc2ccccc2)cc1)Nc1ccc2c(c1)OCO2", "GTP binding activity (percent of control)": "active: 24%"}, {"smiles": "C=CCn1c(SC)nc2sc3c(c2c1=O)CCc1ccccc1-3", "GTP binding activity (percent of control)": "inconclusive: 102%"}, {"smiles": "C[C@@H]1C[C@H](Nc2ccccc2)c2ccccc2N1C(=O)c1cccnc1", "GTP binding activity (percent of control)": "inconclusive: 102%"}, {"smiles": "COc1cccc(-n2nnc3c(=O)n(Cc4ccc(Cl)cc4)cnc32)c1", "GTP binding activity (percent of control)": "inconclusive: 92%"}]}]}
